Literature values, collected in publication PMC9997069 (Molecular Pharmaceutics, 2023).
Like-named read-outs stand apart in the source and are kept apart here.

System: BSA
Conditions: cited from earlier work

Compound | ΔG^0 (307 K) | ΔH^0 | ΔS^0 | ΔG^0 (308 K) | ΔG^0 (309 K)
C#Cc1cccc(Nc2ncnc3cc(OCCOC)c(OCCOC)cc23)c1 [Erlotinib] | –17.26 kJ mol^–1 | –260.80 kJ mol^–1 | –793.31 J K^–1 mol^–1 | – | –
Cc1ccc(F)c(NC(=O)Nc2ccc(-c3cccc4[nH]nc(N)c34)cc2)c1 [Linifanib] | – | –55.91 kJ mol^–1 | –111.74 J K^–1 mol^–1 | –21.49 kJ mol^–1 | –
C[C@@H](Oc1cc(-c2cnn(C3CCNCC3)c2)cnc1N)c1c(Cl)ccc(F)c1Cl [Crizotinib] | – | –3.23 kJ mol^–1 | 76.37 J K^–1 mol^–1 | – | –26.83 kJ mol^–1
